From PubChem BioAssay AID493014 (National Center for Advancing Translational Sciences (NCATS), 2011)
In all, about 340,000 compounds went through this assay and about 170 (0.05%) were called active. Inconclusive results, whose numbers are uncertain, are shown with a selection of clear calls. The call rests on the fitted dose curve; in most records, active means well fitted inhibition curve with a large enough effect in the signal ratio, with a control signal flat (not every such curve was filed as active); inconclusive means small, poorly fitted or top-dose-only effect, or effect the other way, or a change in a side signal; inactive means flat fitted curve, though single readings scatter; the % refers to the signal ratio. A potency beside an inconclusive call is a rough fit, not a confirmed value.

test: qHTS Assay to Find Inhibitors of Chronic Active B-Cell Receptor Signaling; conditions: ABC-DLBCL IkBa-CBG/CBR reporter, luminescence ratio (green luciferase fused to IkBa over red control in TMD8 lymphoma cells), 4 h; activity change, negative = inhibition: at 46.1 µM (top of the series) unless noted;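 on activity change, negative = inhibition: plate controls were basal doxycycline-induced cells for no effect and cells given 10 µM MG132 for full effect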
In short: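 Cell line TMD8 (human ABC DLBCL), stably expressing tet-inducible CBG68-IkBa fusion and CBR; IMDM/0.5% FBS; cpd up to 46 uM; dox induction, 4 h, 37C/5% CO2; dual luminescence; green/red ratio; MG132 control.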
Potency means the concentration at half of the fitted maximal effect.

SMILES | activity change, negative = inhibition | Potency
CCCCSc1nnc(-c2ccc(C)cc2)o1 | inconclusive: -23.4% | 
COC(=O)C1CCN(C(=O)/C=C/c2ccccc2)CC1 |  | inconclusive: 9.2 µM [falling, partial curve, poor fit]
CCN(Cc1ccncc1)C(=O)c1ccc(C)o1 | inconclusive: 0.311% | 
O=C(NCCN1CCOCC1)c1cccc(Cl)c1 | inactive | 
CCOC(=O)C1=C(C)NC2=C(C(=O)c3ccccc32)C1c1ccc([N+](=O)[O-])o1 (configuration not stated) | inactive | 
C/C(=N\NC(=S)NCc1ccccc1)c1ccc(Cl)s1 | inactive | 
CN(C)C(=O)CSc1ncccc1-c1nc2ccccc2[nH]1 |  | inconclusive: 17.8 µM [falling, partial curve]
COc1ccc(CCNC(=O)CCc2ccc(S(=O)(=O)NC(C)C)cc2)cc1OC | inconclusive: 0.359% | 
CC(C)CC(NC(=O)CCl)c1ccccc1 (configuration not stated) |  | inconclusive: 25.9 µM [falling, partial curve, poor fit]
O=C(NCC1CCCO1)c1cc2c([nH]c3ccccc32)c(-c2ccc(F)cc2)n1 (configuration not stated) | inconclusive: 17.6% | 
CC(=O)Nc1ccc(S(=O)(=O)N2CCN(Cc3cccnc3)CC2)cc1 |  | inconclusive: 6.51 µM [rising, single point]
CCS(=O)(=O)c1ccc2oc(SCC(=O)NC34CC5CC(CC(C5)C3)C4)nc2c1 | inconclusive: -10.9% | 
COCCNC(=O)CSc1nc2cc3c(cc2c(=O)n1Cc1ccco1)OCO3 | inactive | 
C=CCOC(=O)C1=C(C)NC(C)=C(C(=O)OCC=C)C1/C=C/c1ccccc1 |  | inconclusive: 1.78 µM [falling, full curve, poor fit]
O=C(COC(=O)c1ccc(O)cc1)c1ccc2c(c1)OCCO2 |  | inconclusive: 16.4 µM [falling, single point]
Cc1cccc(CN(CC(=O)N/N=C/c2cccs2)S(=O)(=O)c2ccc(Cl)cc2)c1 | inconclusive: 11.2% | 
CC(C)NC(=O)CSc1nc(Cc2ccccc2)nc2ccccc12 | inactive | 
CCc1ccc(NC(=O)CSc2nc(NS(=O)(=O)c3ccccc3)cc(=O)[nH]2)cc1 | inactive | 
CC(=O)n1cc(N(C(=O)CCl)c2ccc([N+](=O)[O-])cc2)c2ccccc21 | inconclusive: 5.89% | 
CS(=O)(=O)c1ccccc1C(=O)Nc1ccc(S(=O)(=O)N2CCCC2)cc1 | inactive | 
Cn1nnnc1SCC(=O)N1CCc2ccccc2C1 | inconclusive: 5.84% | 

Ordered by count of non-hydrogen atoms (ascending): some entries from above.
SMILES | activity change, negative = inhibition | Potency
CC(C)NC(=O)CSc1nc(Cc2ccccc2)nc2ccccc12 | inactive | 
CC(=O)Nc1ccc(S(=O)(=O)N2CCN(Cc3cccnc3)CC2)cc1 |  | inconclusive: 6.51 µM [rising, single point]
CCS(=O)(=O)c1ccc2oc(SCC(=O)NC34CC5CC(CC(C5)C3)C4)nc2c1 | inconclusive: -10.9% | 

(next part)

SMILES | activity change, negative = inhibition | Potency
C=CCNc1oc(-c2cccs2)nc1C#N | inconclusive: 10.9% | 
CSc1nnc(Nc2ccccc2C)s1 |  | inconclusive: 18.4 µM [falling, single point]
NNC(=O)c1ccc(COc2ccc3ccccc3c2)o1 |  | inconclusive: 10 µM [falling, partial curve]
Cc1cc(Cl)cc(Cl)c1OCCCCN(C)C | inconclusive: -14.5% | 
O=S(=O)(NCc1cccs1)c1cccc2cccnc12 | inconclusive: 0.517% | 
Cc1cc(C(=O)N/N=C/c2cccc(OC(=O)c3cccc(Br)c3)c2)n[nH]1 | inactive | 
COC(=O)c1cc(C)nc(N)c1C#N | inconclusive: 11.8% | 
COc1ccc(N(CC(=O)Nc2cccc(C)c2)S(=O)(=O)c2ccc(C)cc2)cc1OC | inconclusive: 3.65% | 
CC1Sc2ccc(S(=O)(=O)NCCc3ccc(Cl)cc3)cc2NC1=O (configuration not stated) | inconclusive: -10.4% | 
O=C(Nc1ccccc1C(=O)O)c1cccc(C(=O)Nc2ccccc2C(=O)O)c1 |  | inconclusive: 5.62 µM [falling, partial curve]
CC(C)c1ccc2[nH]c3c(c2c1)CCCC3=O | inconclusive: 1.58% | 
COCCn1c(=NC(=O)c2cc(-c3cccs3)nc3ccccc23)sc2cc(S(N)(=O)=O)ccc21 | inconclusive: 8.86% | 
N#Cc1c(N2CCCCC2)nc(N)c2c(N)nc(SCC(=O)O)cc12 | inconclusive: 16.1% | 
COc1ccc(Br)cc1CN1C(=O)NC2(CCCCCC2)C1=O | inactive | 
O=C(O)CCN1C(=O)/C(=C\c2ccc(-c3nc4ccccc4s3)o2)SC1=S |  | inconclusive: 0.651 µM [falling, full curve, poor fit]
CCOc1ccc(-c2ccc(/C=C3/C(=N)N4C=CSC4=NC3=O)o2)c([N+](=O)[O-])c1 |  | inconclusive: 13 µM [rising, partial curve, poor fit]
COc1ccc(S(=O)(=O)n2nc(-c3cc(OC)c(OC)c(OC)c3)cc2N)cc1OC |  | inconclusive: 23.1 µM [falling, partial curve, poor fit]
CC(C)c1ccc(Nc2nc(Cl)nc(NCc3ccco3)n2)cc1 | inconclusive: 3.78% | 
Cc1nc2ccccc2c(=O)n1/N=C/c1ccccc1O | inactive | 
CC(C)Cc1c(O)nc(SCC(=O)Nc2ccc3c(c2)CCC3)[nH]c1=O | inconclusive: 5.02% | 
COc1cccc(/C=N/n2nnnc2N)c1 | inactive | 

Rewritten as comma-separated lines: entries from further up.
SMILES,"activity change, negative = inhibition",Potency
COC(=O)c1cc(C)nc(N)c1C#N,inconclusive: 11.8%,
COc1ccc(N(CC(=O)Nc2cccc(C)c2)S(=O)(=O)c2ccc(C)cc2)cc1OC,inconclusive: 3.65%,

Following part.

SMILES | activity change, negative = inhibition | Potency
CCOC(=O)c1cnn(C)c1NC(=O)c1ccc(Cl)cc1Cl | inactive | 
COc1ccc(C(CNC(=O)CCNS(=O)(=O)c2ccc(C)cc2)N2CCOCC2)cc1 (configuration not stated) | inactive | 
CCOC(=O)Cc1csc(SCC(=O)N2CCN(c3ccccc3)CC2)n1 | inactive | 
CCOc1ccc(NS(=O)(=O)c2ccc(C(=O)N3CCCCCC3)cc2)cc1 | inactive | 
Cc1nc(N2CCOCC2)nc2c1CCCC2 | inconclusive: 27% | 
CCC(C)(C)NC(=O)C(c1ccc(OC)cc1)N(Cc1cccs1)C(=O)CCC(=O)Nc1cc(C)on1 (configuration not stated) | inactive | 
CCCCn1c(N)c(N(CCC(C)C)C(=O)CN2C(=O)C3CCCCC3C2=O)c(=O)[nH]c1=O (configuration not stated) | inactive | 
CC1CN(C(=O)c2ccc(COc3ccc4ccccc4c3)o2)CC(C)O1 (configuration not stated) |  | inconclusive: 14.1 µM [falling, partial curve]
NC(=O)C1CCN(C(c2ccccc2Cl)c2nnnn2CC2CCCO2)CC1 (configuration not stated) | inconclusive: -1.15% | 
O=C(NCc1ccccn1)C(=O)NCC1OCCN1S(=O)(=O)c1ccc(Cl)cc1 (configuration not stated) | inconclusive: 1.46% | 
Cc1ccc(N=Nc2c(O)[nH]c3ccc(F)cc23)cc1 | inconclusive: 6.63% | 
O=C(NCCOc1ccccc1)c1ccc2c(c1)OCO2 |  | inconclusive: 29.1 µM [falling, single point]
CCOc1cc(C(=O)OCC(=O)c2cc(C)n(CC3CCCO3)c2C)ccc1OCC(=O)N1CCOCC1 (configuration not stated) | inconclusive: -4.06% | 
Nc1nc2c(s1)CCc1c-2cnn1-c1ccccc1 | inconclusive: -14.1% | 
O=C(C(=O)N1CCc2ccccc2C1)c1cn(CC(=O)N2CCOCC2)c2ccccc12 | inactive | 
COc1c(Cl)cnn(-c2ccc(Cl)c(Cl)c2)c1=O | inconclusive: -18.9% | 
CCOC(=O)c1cccc(NC(=O)C2CCCN2S(=O)(=O)c2cccc3cccnc23)c1 (configuration not stated) | inconclusive: -1.05% | 
c1ccc(Oc2nc(Oc3ccccc3)nc(N3CCOCC3)n2)cc1 | inconclusive: -8.03% | 
Cc1csc(NC(=O)c2c(O)c3c(n(CC(C)C)c2=O)CCCC3)n1 | inconclusive: 3.31% | 
COc1cc2nc(NC(=O)c3ccccc3)[nH]c(=O)c2cc1OC | inconclusive: -5.1% | 
O=[N+]([O-])c1ccc(NNC(=S)Nc2ccccc2)cc1 | inconclusive: -21.5% | 

SMILES | activity change, negative = inhibition | Potency
CCCC1=Nc2cc(C(=O)NCc3ccco3)ccc2Sc2ccccc21 | inconclusive: -10.6% | 
CSc1ncc(Cl)c(C(=O)Nc2ccc(S(=O)(=O)Nc3nccc(C)n3)cc2)n1 |  | inconclusive: 25.1 µM [falling, single point]
CCCCN(C)CCCNC(=O)CN1N=C(c2ccc(OC)cc2)CCC1=O |  | inconclusive: 17.8 µM [falling, partial curve, poor fit]
CC(=O)C1=C(c2ccccc2)N(C(C)=O)n2c(nnc2C2CCCCC2)S1 | inactive | 
Fc1cc(F)cc(NC(=S)N2CCN(c3ncccn3)CC2)c1 |  | inconclusive: 17.8 µM [rising, single point]
CC(=O)c1c(C)n([O-])c2ccccc2[n+]1=O | inconclusive: 15.2% | 
O=C(NCCN1CCN(c2cccc(Cl)c2)CC1)c1ccc(CSc2nc3ccncc3[nH]2)cc1 |  | inconclusive: 35.5 µM [falling, single point]
Cc1ccc(C)c(-n2cc(CNCCCn3cccn3)c(-c3ccccc3)n2)c1 | inconclusive: 8.07% | 
O=C(CCCN1C(=O)/C(=C\c2ccccc2)SC1=S)N1CCOCC1 |  | inconclusive: 20.6 µM [falling, partial curve]
CC(CCc1ccccc1)NC(=O)C1CCN(S(=O)(=O)c2cnc[nH]2)CC1 (configuration not stated) | inconclusive: -18.7% | 
COc1ccc(C(=O)NC(=S)NCc2ccc(-c3nc4ccccc4o3)cc2)cc1OC | inconclusive: 1.06% | 
Cc1scc(C(=O)NNC(=S)NC(C)c2ccccc2)c1C (configuration not stated) | inconclusive: -0.227% | 
O=C(CSc1ccccn1)N1CCOCC1 | inconclusive: 6.45% | 
CCCCCO | inconclusive: 5.12% | 
Cc1cc(C)n(-c2c(F)c(F)c(COC(=O)c3ccccc3)c(F)c2F)n1 |  | inconclusive: 29.1 µM [falling, single point]
Clc1ccc(OCc2nnc3n2N=C(c2ccc4c(c2)OCCO4)CS3)c(Cl)c1 |  | inconclusive: 4.11 µM [falling, partial curve, poor fit]
CC(=O)Nc1ccc(C(=O)N/N=C/c2ccncc2)cc1 |  | inconclusive: 3.16 µM [falling, full curve]
CC1Oc2ccccc2N(Cc2ccccc2Cl)C1=O (configuration not stated) | inconclusive: 6.64% | 
C/C(=N\NC(=O)c1ccc(NS(=O)(=O)c2cccs2)cc1)c1ccc(Cl)cc1 |  | inconclusive: 29.1 µM [falling, single point]
